# Laboratory results as given in US20190169294A1.
# Tests used:
# [1] = target: bovine LAG-3-EGFP on COS-7 cells (bovine LAG-3 expressing cells) (bovine); assay: flow cytometry on bovine LAG-3-EGFP expressing COS-7 cells
# [2] = target: water buffalo LAG-3-EGFP on COS-7 cells (water buffalo LAG-3 expressing cells) (water buffalo); assay: flow cytometry on water buffalo LAG-3-EGFP expressing COS-7 cells (figure legend)
# [3] = target: water buffalo LAG-3-EGFP on COS-7 cells (water buffalo LAG-3 expressing cells) (water buffalo); assay: flow cytometry on water buffalo LAG-3-EGFP expressing COS-7 cells, antibody at 10 ug/ml
binding [1],binding [2],binding [3],Binder
binds,–,–,"rat-bovine chimeric anti-bovine LAG-3 antibody ch2D8 (antibody, IgG1, V domains shown) VH: EVQLVESGGGLVQPKGSLRLSCAASGFDFDTYPMSWVRQAPGKGLDWVASITIKTHNYATLYAASVKERFTISRDDSQSMVYLQMNNLKTEDTALYYCNREDFDYWGQGVMVTVSS VL: DVVLTQTPPTLSATIGQSVSISCRSSQSLLDSDGNTYLNWLLQRPGQSPQLLIYSVSNLESGVPNRFSGSGSETDFTLKISGVEAEDLGVYYCMQATHVPFTFGSGTKLEIKQ"
binds,binds,binds,"rat anti-bovine LAG-3 monoclonal antibody 2D8 (antibody, V domains shown) VH: EVQLVESGGGLVQPKGSLRLSCAASGFDFDTYPMSWVRQAPGKGLDWVASITIKTHNYATLYAASVKERFTISRDDSQSMVYLQMNNLKTEDTALYYCNREDFDYWGQGVMVTVSS VL: DVVLTQTPPTLSATIGQSVSISCRSSQSLLDSDGNTYLNWLLQRPGQSPQLLIYSVSNLESGVPNRFSGSGSETDFTLKISGVEAEDLGVYYCMQATHVPFTFGSGTKLEIK"

# Results are given in words; binding and its absence hold for the method and conditions named. A result given as binding can be weak or reduced; the word gives no strength.
